PubChem BioAssay AID1259424 | University of Nebraska Medical Center – 2018
In all, the deposit lists about 14,000 reagents; this is a part drawn at random. 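Higher correlation or smaller distance means closer resemblance to KSR1 loss; control wells, including KSR1 knockdowns, recur on many plates.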 Further read-outs or replicates are left out here. Reagent sequences are not shown. The record does not give: the time to read-out.

Test: 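Find knockdowns that reproduce the expression shifts seen after KSR1 loss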 (primary screen)
Cells: human HCT116 colon cancer cells
Knock-down reagent: siRNA pool against human genes, 50 nM
Read-out: 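Log2 levels of six mRNAs (branched-DNA multiplex), adjusted by two reference genes and the non-targeting median, then scored against the average KSR1 knockdown pattern as Pearson r and euclidean distance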
Reading the numbers: mean correlation with KSR1 profile: higher = expression change more like KSR1 knockdown; mean distance from KSR1 profile: higher = expression change less like KSR1 knockdown

SMNDC1 (GeneID 10285) — mean correlation with KSR1 profile: -0.562; mean distance from KSR1 profile: 2.2
MEPCE (GeneID 56257) — mean correlation with KSR1 profile: -0.385; mean distance from KSR1 profile: 5.84
MYH7B (GeneID 57644) — mean correlation with KSR1 profile: -0.117; mean distance from KSR1 profile: 2.05
MAN1A1 (GeneID 4121) — mean correlation with KSR1 profile: 0.0883; mean distance from KSR1 profile: 1.26
FYCO1 (GeneID 79443) — mean correlation with KSR1 profile: 0.882; mean distance from KSR1 profile: 0.812
IL1A (GeneID 3552) — mean correlation with KSR1 profile: 0.0997; mean distance from KSR1 profile: 2.09
TNFRSF10D (GeneID 8793) — mean correlation with KSR1 profile: -0.0448; mean distance from KSR1 profile: 2.07
HES7 (GeneID 84667) — mean correlation with KSR1 profile: 0.473; mean distance from KSR1 profile: 1.73
KATNBL1 (GeneID 79768) — mean correlation with KSR1 profile: 0.388; mean distance from KSR1 profile: 1.71
PHF14 (GeneID 9678) — mean correlation with KSR1 profile: -0.23; mean distance from KSR1 profile: 3.82
PKLR (GeneID 5313) — mean correlation with KSR1 profile: -0.00677; mean distance from KSR1 profile: 3.76
CUL7 (GeneID 9820) — mean correlation with KSR1 profile: -0.361; mean distance from KSR1 profile: 2.55
ACR (GeneID 49) — mean correlation with KSR1 profile: -0.345; mean distance from KSR1 profile: 3
COL8A2 (GeneID 1296) — mean correlation with KSR1 profile: 0.153; mean distance from KSR1 profile: 1.07
CD151 (GeneID 977) — mean correlation with KSR1 profile: -0.0261; mean distance from KSR1 profile: 2.9
TREM2 (GeneID 54209) — mean correlation with KSR1 profile: 0.107; mean distance from KSR1 profile: 2.6
CCDC14 (GeneID 64770) — mean correlation with KSR1 profile: -0.405; mean distance from KSR1 profile: 2.08
ADHFE1 (GeneID 137872) — mean correlation with KSR1 profile: -0.89; mean distance from KSR1 profile: 2.7
SETD5 (GeneID 55209) — mean correlation with KSR1 profile: -0.416; mean distance from KSR1 profile: 3.51

Part of the list above in another layout.
CUL7 (GeneID 9820)
- mean correlation with KSR1 profile: -0.361
- mean distance from KSR1 profile: 2.55

ACR (GeneID 49)
- mean correlation with KSR1 profile: -0.345
- mean distance from KSR1 profile: 3
